The values below come from patent US20120094898A1 (Takeda Pharmaceutical Company Limited, priority 2010, published 2012).

Non-standard residues stand in square brackets, D forms with d. No end group written: not given here. *: point of attachment. 1Nal = N[C@@H](Cc1cccc2ccccc12)C(=O)O; 2Nal = N[C@@H](Cc1ccc2ccccc2c1)C(=O)O; Cbz = O=C(OCc1ccccc1)*; βAla = NCCC(=O)O

A short description of the first data set: general procedure: Fmoc solid-phase peptide synthesis; Sieber amide resin; DIPCDI/HOAt. The conditions noted are these: whole synthesis, scale 0.01 mmol.
With Cbz-AY[2Nal]LFRPRN-NH2, the isolated mass was 10.8 mg. Still for that read-out and setting: in the case of “NpipAc-Tyr-Nal(2)-Leu-Phe-Arg-Ala-Arg-Asn-NH2” it was 9.3 mg; in that of “NpipAc-Tyr-Nal(2)-Leu-Phe-Arg-Pro-Arg-Asn-NH2”, 7.9 mg; in that of [βAla]Y[1Nal]LFRPRN-NH2, 6.5 mg.

The same data set, now with this note: whole synthesis, scale 0.02 mmol.
“Acp-Tyr-Nal(2)-Leu-Phe-Arg-NMeAla-Arg-Asn-NH2” yielded an isolated mass of 14.2 mg. Turning to “Pic(4)-Tyr-Nal(2)-Leu-Phe-Arg-NMeAla-Arg-Asn-NH2”, the isolated mass was 19.0 mg.
